We go through seven compounds from ChEMBL document CHEMBL3137667, “[Drug-induced liver injury; fourteenth updated edition of the bibliographic database of liver injuries and related drugs]” (Gastroenterol Clin Biol, 2004).

For this data set the following is noted: human.
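Also: count of indexed literature references reporting vascular liver injury in humans, e.g. peliosis hepatitis, hepatic veno-occlusive disease or Budd-Chiari syndrome.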

In the case of `COc1cc2c(cc1OC)C(=O)C(CC1CCN(Cc3ccccc3)CC1)C2` (configuration not stated) [DONEPEZIL], the “Hepatotoxicity (association with vascular disease)” value (“Hepatotoxicity” below) is 0.
Take `CN1c2ccccc2C(NCCCCCCC(=O)O)c2ccc(Cl)cc2S1(=O)=O` (configuration not stated) [TIANEPTINE]: the “Hepatotoxicity” value was 0.
On to `Nc1nc2ccc(OC(F)(F)F)cc2s1` [RILUZOLE], for which the “Hepatotoxicity” value is reported as 0.
`CCn1cc(C(=O)O)c(=O)c2cc(F)c(N3CCN(C)CC3)cc21` [PEFLOXACIN]: the “Hepatotoxicity” value is recorded as 0.
As for `CCC[C@@H]1C[C@@H](C(=O)N[C@@H]([C@H]2O[C@H](SC)[C@H](O)[C@@H](O)[C@H]2O)[C@H](C)Cl)N(C)C1` [CLINDAMYCIN], the “Hepatotoxicity” value turned out to be 0.
In the case of `O=C1OCCN1/N=C/c1ccc([N+](=O)[O-])o1` [FURAZOLIDONE] it was 0; in that of `COC(=O)C1=C(C)NC(C)=C(C(=O)OC)C1c1ccccc1[N+](=O)[O-]` [NIFEDIPINE], 0.
